# Data taken from US5068247A, “2-aminopentanoic acid compounds and their use as immunosuppressants” (priority 1989, dated 1991).
# Some results were stated once for a whole list of compounds, not compound by compound.
# Test system: mouse allogenic MLR (BALB/c mouse spleen cells stimulated with C57BL/6 mouse spleen cells)
# Test: mouse allogenic mixed lymphocyte reaction (MLR), 3H-thymidine uptake
# Type: cell-based
# Settings: 1 to 0.0001 μg/ml
# Protocol: The immunosuppressive activity of the compounds was assayed on the basis of mouse allogenic mixed lymphocyte reaction (hereinafter sometimes abbreviated as MLR). Mouse allogenic MRL was carried out using a mixed culture of BALB/c mouse (H-2^d) spleen cells as the responder cells and mitomycin C-treated C57BL/6 ([…]) mouse spleen cells as the stimulator cells in equal amounts.
# The responder cells were prepared as follows:
# The spleen was resected from 5- to 6-week-old BALB/c mice, and single cell suspension of spleen cells was prepared by using the RPMI1640 culture medium (containing 60 μg/ml of kanamycin sulfate, 2 mM of L-glutamine, 10 mM of N-2-hydroxyethylpiperazine-N'-2-ethanesulphonate (HEPES) and 0.1% sodium hydrogencarbonate) to which heat-inactivated fetal calf serum (hereinafter sometimes abbreviated as FCS) had been added to 5%. After hemolytic treatment, the cell suspension was adjusted to a concentration of 10^7 cells/ml with the RPMI1640 culture medium supplemented with 10^-4 M 2-mercapto-ethanol and 20% FCS, and was used as the responder cell suspension.
# The stimulator cells were prepared as follows: The spleen was resected from 5- to 6-week-old male C57BL/6 mice, and a single cell suspension of spleen cells was prepared by using the RPMI1640 culture medium. After hemolytic treatment, the cells were treated with 40 μg/ml of mitomycin C at 37° C. for 60 minutes. After washing three times, the cell suspension was adjusted to a concentration of 10^7 cells/ml with the RPMI1640 culture medium supplemented with 10^-4 M 2-mercapto-ethanol and 20% FCS, and was used as the stimulator cell suspension.
# The blastogenesis of lymphocytes was assayed using ^3 H-thymidine uptake as an index. That is, after termination of culture, 18.5 KBq/well of ^3 H-thymidine was added thereto and the suspension was cultured for 4 hours. Cells were harvested by a cell-harvester, and the radioactivity incorporated into the cells was determined by a liquid scintillation counter, which was used as an index of blastogenesis of lymphocytes in the mouse allogenic MLR. The suppression of the mouse allogenic MLR was evaluated by calculating the percent suppression by the following formula.
# The test substance dissolved in methanol was diluted with the RPMI1640 culture medium and put to use.
row,Compound,suppressive activity in mouse allogenic MLR (in words)
1,CCCCCCCCCCCCC/C=C/C[C@@H](O)[C@H](O)[C@@](N)(CO)C(=O)O [Example 5],exhibited the suppressive activity in mouse allogenic MLR in a concentration-dependent manner
2,CCCCCCC(CCCCCC/C=C/C[C@@H](O)[C@H](O)[C@@](N)(CO)C(=O)O)=NO [Example 4],exhibited the suppressive activity in mouse allogenic MLR in a concentration-dependent manner
3,CCCCCCC1(CCCCCC/C=C/C[C@@H](O)[C@H](O)[C@@](N)(CO)C(=O)O)SCCS1 [Example 3],exhibited the suppressive activity in mouse allogenic MLR in a concentration-dependent manner
4,N[C@](CO)(C(=O)O)[C@@H](O)[C@H](O)CCO [Example 6],exhibited the suppressive activity in mouse allogenic MLR in a concentration-dependent manner
